No constants are given. Whether binding was seen depends on the method and setting. In cells and extracts the contact can be indirect. For some assays here: Binding can be weak; no strength is given. For some assays here: Tags and fused reporters may be left off the sequences shown.

Experimental findings from paper PMC6280653 are described below.

The target of experiment [1] is T1, 6xHis-Rab22A^WT (mouse) (UniProt P35285).
T1 sequence: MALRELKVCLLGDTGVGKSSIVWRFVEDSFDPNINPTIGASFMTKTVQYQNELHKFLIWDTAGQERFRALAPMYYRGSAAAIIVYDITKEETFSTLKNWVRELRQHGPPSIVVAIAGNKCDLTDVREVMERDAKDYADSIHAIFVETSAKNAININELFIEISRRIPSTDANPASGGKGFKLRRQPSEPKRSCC
Put plainly: pull-down; His-Rab22A^WT on Ni-NTA beads incubated with melanocyte lysate in RIPA buffer, 6-8 h, 4°C; immunoblot; the beads of Fig 5E were preloaded with nucleotide, here GTPγS (1 mM); only the target purified.

Experiment [2] has as its target stalk domain of His-tagged KIF13A (human). Put plainly: pull-down; His-KIF13A domains (motor, stalk-1, stalk-2, tail) on Ni-NTA beads incubated with HeLa cell lysate in RIPA buffer, 6-8 h, 4°C; immunoblot; only the target purified. A general note: A western blot detects proteins with antibodies after separation by electrophoresis.

As for “Rab7, of melanocytes (mouse (endogenous in melanocytes))”, in experiment [1], the binding entry is reported as “no binding”.

B1: Rab22A (protein, UniProt Q9UL26 1-194)
chain: MALRELKVCLLGDTGVGKSSIVWRFVEDSFDPNINPTIGASFMTKTVQYQNELHKFLIWDTAGQERFRALAPMYYRGSAAAIIVYDITKEETFSTLKNWVKELRQHGPPNIVVAIAGNKCDLIDVREVMERDAKDYADSIHAIFVETSAKNAININELFIEISRRIPSTDANLPSGGKGFKLRRQPSEPKRSCC
Turning to B1, in experiment [2], the binding entry is reported as “binds”.
